Assay results: patent publication US11590076B2, “Cryogel scaffold capable of controlling degree of degradation and soft bio-integrated device in which drug modulating immunosuppressive action in solid microenvironment is loaded in same scaffold” (Research & Business Foundation Sungkyunkwan University, priority 2017, dated 2023)
At least one compound was matched to its structure with a doubt left.

Test system: macrophages
Test: M2 to M1 macrophage polarization by resiquimod (R848)
Type: cell-based

`CCOCc1nc2c(N)nc3ccccc3c2n1CC(C)(C)O` [resiquimod] was tested, and the “level of IL-10 (cytokine associated with immunosuppression)” value (FIG. 42B) was “decreased”, the “level of inflammatory cytokine associated with immune activation” value (FIG. 42B) was “increased” and the “macrophage polarization (surface markers CD86/CD206, Arg/NO generation, cytokine expression)” value (FIGS. 42A and 42B) was “tendency of macrophage polarization from M2 to M1”.
